Laboratory results as given in publication PMC9234224.
Results are given in words; binding and its absence hold for the method and conditions named. In cells and extracts the contact can be indirect. Some entries that bind do so weakly or less than the wild type.

Sequences of proteins named here, by UniProt entry; tags and fusion partners are left off.
UniProt Q86WV6: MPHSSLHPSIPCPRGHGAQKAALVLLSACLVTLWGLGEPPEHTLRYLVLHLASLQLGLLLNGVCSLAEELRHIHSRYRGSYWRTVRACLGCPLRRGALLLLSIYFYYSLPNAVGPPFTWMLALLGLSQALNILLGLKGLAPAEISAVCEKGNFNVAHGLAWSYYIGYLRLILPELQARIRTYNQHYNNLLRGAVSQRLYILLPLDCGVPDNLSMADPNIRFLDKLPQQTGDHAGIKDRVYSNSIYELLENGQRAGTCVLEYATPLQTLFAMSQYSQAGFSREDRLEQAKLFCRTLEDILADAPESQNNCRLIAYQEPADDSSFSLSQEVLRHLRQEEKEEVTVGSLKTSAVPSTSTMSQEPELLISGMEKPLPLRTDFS
UniProt P05412: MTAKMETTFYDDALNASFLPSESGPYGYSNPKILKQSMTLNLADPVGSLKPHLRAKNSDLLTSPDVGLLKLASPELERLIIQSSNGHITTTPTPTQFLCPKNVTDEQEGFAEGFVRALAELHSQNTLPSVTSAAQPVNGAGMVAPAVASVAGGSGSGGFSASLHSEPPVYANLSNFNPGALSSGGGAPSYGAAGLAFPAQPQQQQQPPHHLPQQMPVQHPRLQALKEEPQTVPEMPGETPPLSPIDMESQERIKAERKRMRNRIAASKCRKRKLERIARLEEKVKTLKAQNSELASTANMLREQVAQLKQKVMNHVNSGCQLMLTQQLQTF
UniProt Q99836: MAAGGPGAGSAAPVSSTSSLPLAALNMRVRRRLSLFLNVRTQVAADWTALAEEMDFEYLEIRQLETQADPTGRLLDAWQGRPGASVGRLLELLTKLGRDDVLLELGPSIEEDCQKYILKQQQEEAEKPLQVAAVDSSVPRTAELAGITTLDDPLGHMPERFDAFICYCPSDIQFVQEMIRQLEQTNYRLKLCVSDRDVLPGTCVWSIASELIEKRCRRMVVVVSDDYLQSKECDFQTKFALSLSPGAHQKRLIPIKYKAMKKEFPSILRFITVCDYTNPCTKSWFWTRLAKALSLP

How the values were obtained:
[1] = target: T1, interferon regulatory factor 3 (IRF3) (human (endogenous in THP1)) (UniProt Q14653); assay: co-IP; endogenous proteins from THP1 cells, untreated or treated with LPS (500 ng/mL) and 3'3'-cGAMP (10 ug/mL) for 6 h; lysed in RIPA buffer at 4°C, specific antibodies (3-5 ug/mL) with protein A agarose beads, 2 h or overnight at 4°C, washed with PBS; blot
T1 sequence: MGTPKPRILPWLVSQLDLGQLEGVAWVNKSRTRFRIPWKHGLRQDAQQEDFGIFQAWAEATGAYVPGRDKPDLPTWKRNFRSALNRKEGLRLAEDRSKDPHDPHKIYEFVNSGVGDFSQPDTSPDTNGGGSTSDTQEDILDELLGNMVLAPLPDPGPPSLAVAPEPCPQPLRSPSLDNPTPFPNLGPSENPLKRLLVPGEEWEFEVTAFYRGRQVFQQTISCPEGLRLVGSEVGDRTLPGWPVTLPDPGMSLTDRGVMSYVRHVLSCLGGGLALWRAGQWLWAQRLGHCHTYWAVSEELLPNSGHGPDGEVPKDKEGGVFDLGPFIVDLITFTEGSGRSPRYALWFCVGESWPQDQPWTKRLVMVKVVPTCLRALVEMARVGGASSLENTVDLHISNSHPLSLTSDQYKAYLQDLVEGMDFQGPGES

[2] = target: Stimulator of interferon response CGAMP interactor 1 (STING1) (human (endogenous in THP1)) (UniProt Q86WV6); assay: as above

binding [1]	binding [2]	Substance
binds	–	transcription factor JUN (from UniProt P05412 1-331)
–	binds	myeloid differentiation marker 88 (MYD88) (from UniProt Q99836 1-296)
